Results are given in words; binding and its absence hold for the method and conditions named. A result given as binding can be weak or reduced; the word gives no strength. Sequences can lack the tags named with a protein.
Target: T1, T4 gp27 with an N-terminal 10xHis-tag (gp27-N), purified (bacteriophage T4) (UniProt P17172)
T1 sequence: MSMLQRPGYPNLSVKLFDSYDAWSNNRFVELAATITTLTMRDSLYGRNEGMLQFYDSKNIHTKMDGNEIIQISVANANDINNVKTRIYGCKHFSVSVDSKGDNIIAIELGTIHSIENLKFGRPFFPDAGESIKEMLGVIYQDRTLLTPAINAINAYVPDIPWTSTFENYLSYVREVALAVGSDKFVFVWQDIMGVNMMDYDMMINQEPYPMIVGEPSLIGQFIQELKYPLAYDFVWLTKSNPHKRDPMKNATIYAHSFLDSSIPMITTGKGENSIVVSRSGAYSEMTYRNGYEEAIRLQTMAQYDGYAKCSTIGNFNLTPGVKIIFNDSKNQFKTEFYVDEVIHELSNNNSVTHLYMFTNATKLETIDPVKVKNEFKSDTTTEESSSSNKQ
Assay: pull-down; Strep-purified DamX or PpiD incubated with purified gp27-N-His for 15 min at 37 °C; nickel affinity chromatography; flow-through, wash and elution fractions on SDS-PAGE; both purified

Chains of the proteins cited; added tags and fusions are not shown. Lines headed by an entry give the natural chain unless they say otherwise; changes in a name come on top.
UniProt P11557: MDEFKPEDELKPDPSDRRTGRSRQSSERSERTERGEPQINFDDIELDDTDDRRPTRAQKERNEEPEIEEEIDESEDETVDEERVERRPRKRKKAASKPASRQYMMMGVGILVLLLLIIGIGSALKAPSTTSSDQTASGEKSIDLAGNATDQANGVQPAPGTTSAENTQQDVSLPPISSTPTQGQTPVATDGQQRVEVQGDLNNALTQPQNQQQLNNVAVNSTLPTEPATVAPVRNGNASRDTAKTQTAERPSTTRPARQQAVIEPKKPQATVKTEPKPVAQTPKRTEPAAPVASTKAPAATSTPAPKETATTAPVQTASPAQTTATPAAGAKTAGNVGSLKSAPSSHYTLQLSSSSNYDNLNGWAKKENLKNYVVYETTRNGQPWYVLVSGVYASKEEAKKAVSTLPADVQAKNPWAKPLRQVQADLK

binding: binds
Substance: E. coli DamX with an N-terminal Strep-tag, purified (from UniProt P11557)

— publication PMC11054660
